Patent publication US9241891B2, “Personal care compositions comprising self-assembling peptides” (The Procter & Gamble Company, priority 2012, dated 2016)

Experiment: Contraction assay on polyurethane foam substrate (skin smoothing / wrinkle reduction)
Conditions: dried 24 hours

## RADARADARADARADA [PuraMatrix ™]
Hexadecapeptide treatment
  Contraction of foam substrate (in words): contraction is observed
Initial length of the foam 40 mm, 150 μL heat-treated PuraMatrix on foam with NaCl/CaCl2 salt solution
  Length after the treatment (distance between ends of foam substrate): 34 mm
